These results are taken from PMC5760533.

Assay [1] concerns the target human RFX3, in vitro translated (human) (UniProt P48380). Description: native gel or EMSA; in vitro translated RFX1, RFX3 (alone or cotranslated) with 32P-labelled X-box or D2 double-stranded oligonucleotide; 30 min at 20 °C, 20 mM Hepes pH 7.9, 60 mM KCl, 4% Ficoll, poly(dI-dC); 4% polyacrylamide gel; dimers seen as DNA-bound complexes. A general note: In EMSA bound probe runs differently from free probe, usually more slowly.

Assay [2] has as its target T1, human RFX1, in vitro translated (human) (UniProt P22670).
T1 sequence: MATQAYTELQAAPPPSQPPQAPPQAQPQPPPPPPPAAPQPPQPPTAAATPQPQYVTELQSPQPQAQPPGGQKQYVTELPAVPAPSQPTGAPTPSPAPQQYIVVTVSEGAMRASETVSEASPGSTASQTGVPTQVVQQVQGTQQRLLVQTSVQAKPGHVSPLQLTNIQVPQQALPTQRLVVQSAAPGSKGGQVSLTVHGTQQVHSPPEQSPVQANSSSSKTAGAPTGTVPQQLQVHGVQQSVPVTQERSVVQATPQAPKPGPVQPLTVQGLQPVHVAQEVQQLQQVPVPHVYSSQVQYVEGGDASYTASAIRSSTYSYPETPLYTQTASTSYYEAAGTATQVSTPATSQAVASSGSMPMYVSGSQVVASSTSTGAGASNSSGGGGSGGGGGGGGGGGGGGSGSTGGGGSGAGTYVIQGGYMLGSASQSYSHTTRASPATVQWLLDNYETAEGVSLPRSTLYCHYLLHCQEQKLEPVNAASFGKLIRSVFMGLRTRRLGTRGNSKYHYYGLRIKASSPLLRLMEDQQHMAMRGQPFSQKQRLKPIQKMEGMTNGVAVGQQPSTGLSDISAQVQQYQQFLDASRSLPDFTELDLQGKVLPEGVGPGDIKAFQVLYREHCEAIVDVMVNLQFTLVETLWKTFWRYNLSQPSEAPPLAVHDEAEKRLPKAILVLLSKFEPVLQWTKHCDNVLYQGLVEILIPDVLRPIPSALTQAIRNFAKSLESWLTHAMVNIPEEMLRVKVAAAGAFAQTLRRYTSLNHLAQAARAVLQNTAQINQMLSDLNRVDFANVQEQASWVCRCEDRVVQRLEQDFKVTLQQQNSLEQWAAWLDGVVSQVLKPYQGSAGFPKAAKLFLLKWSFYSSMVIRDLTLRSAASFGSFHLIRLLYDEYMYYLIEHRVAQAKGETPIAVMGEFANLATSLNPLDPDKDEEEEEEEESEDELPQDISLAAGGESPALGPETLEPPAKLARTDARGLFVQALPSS
The assay is described as above.

Assay [3] concerns the target T2, RFX1 of HEK-293 nuclear extract (human (endogenous in HEK-293)) (UniProt P22670).
T2 sequence: T1 sequence
Description: native gel or EMSA; HEK-293 nuclear extract with 32P-labelled D2 probe; supershift with antisera against human RFX1, RFX2, RFX3, RFXANK (20 min on ice); comigration with complexes of in vitro translated proteins; complexes are DNA-bound.

Results are given in words; binding and its absence hold for the method and conditions named. Some entries that bind do so weakly or less than the wild type.

B1: human RFX3, in vitro translated (protein, UniProt P48380 1-749)
chain: MQTSETGSDTGSTVTLQTSVASQAAVPTQVVQQVPVQQQVQQVQTVQQVQHVYPAQVQYVEGSDTVYTNGAIRTTTYPYTETQMYSQNTGGNYFDTQGSSAQVTTVVSSHSMVGTGGIQMGVTGGQLISSSGGTYLIGNSMENSGHSVTHTTRASPATIEMAIETLQKSDGLSTHRSSLLNSHLQWLLDNYETAEGVSLPRSTLYNHYLRHCQEHKLDPVNAASFGKLIRSIFMGLRTRRLGTRGNSKYHYYGIRVKPDSPLNRLQEDMQYMAMRQQPMQQKQRYKPMQKVDGVADGFTGSGQQTGTSVEQTVIAQSQHHQQFLDASRALPEFGEVEISSLPDGTTFEDIKSLQSLYREHCEAILDVVVNLQFSLIEKLWQTFWRYSPSTPTDGTTITESSNLSEIESRLPKAKLITLCKHESILKWMCNCDHGMYQALVEILIPDVLRPIPSALTQAIRNFAKSLEGWLSNAMNNIPQRMIQTKVAAVSAFAQTLRRYTSLNHLAQAARAVLQNTSQINQMLSDLNRVDFANVQEQASWVCQCDDNMVQRLETDFKMTLQQQSTLEQWAAWLDNVMMQALKPYEGRPSFPKAARQFLLKWSFYSSMVIRDLTLRSAASFGSFHLIRLLYDEYMFYLVEHRVAQATGETPIAVMGEFGDLNAVSPGNLDKDEGSEVESEMDEELDDSSEPQAKREKTELSQAFPVGCMQPVLETGVQPSLLNPIHSEHIVTSTQTIRQCSATGNTYTAV
As for B1, the binding result in assay [1] and in assay [2] was “binds” in each case.

B2: RFX3 of HEK-293 nuclear extract (protein, UniProt P48380 1-749)
chain: B1 chain
Consider B2, for which, in assay [3], the binding entry is on record as “binds”.

B3: human RFX1, in vitro translated (protein, UniProt P22670 1-979)
chain: T1 sequence
Turning to B3, in assay [2], the binding result is “binds”.

B4: RFX1 of HEK-293 nuclear extract (protein, UniProt P22670 1-979)
chain: T1 sequence
On to B4, for which, in assay [3], the binding result was “binds”.
